PubChem BioAssay AID1224830 | NIAID – 2016
Shown is one part, drawn at random, of about 18,000 reagents tested. About 2,900 of all reagents (16%) were called active. 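Calls are made per well; low scores hint the gene aids the LPS response, high scores that it dampens it.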 Unmarked entries are inactive. Repeated entries: four replicate wells of each siRNA pool.

Aim: 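Genes whose knock-down alters the TNF-alpha reporter response to LPS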 (primary screen)
Cell system: human THP-1 monocytic leukaemia cells, TNF dual-luciferase reporter clone, PMA-differentiated to macrophage-like cells
Reagent: siRNA pool against human genes, 50 nM
Duration: LPS for 4 h, given about 3 days after siRNA transfection
Conditions: bacterial LPS (TLR4 ligand), 10 ng/ml
Measured: 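Ratio of firefly to renilla light, scaled to the plate median and expressed as a robust z-score per replicate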
Scale: TNF reporter robust z-score: higher = stronger TNF reporter response to LPS
Rule for the call: 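a well is active when its z-score exceeds 2.8 or falls below -1.5; control wells carry no call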

gene symbol | PubChem SID | TNF reporter robust z-score
SLC16A11 | SID315462752 | 0.65
SLC16A11 | SID315462752 | 2.34
SLC16A11 | SID315462752 | 1.9
SLC16A11 | SID315462752 | 2.32
RAP1GAP2 | SID315454996 | -0.43
RAP1GAP2 | SID315454996 | -0.95
RAP1GAP2 | SID315454996 | -0.57
RAP1GAP2 | SID315454996 | -0.21
C12orf71 | SID315465201 | -0.89
C12orf71 | SID315465201 | -1.36
C12orf71 | SID315465201 | -0.35
C12orf71 | SID315465201 | -0.72
TEK | SID315451821 | -0.71
TEK | SID315451821 | 1.68
TEK | SID315451821 | -0.05
TEK | SID315451821 | 0.69
AAAS | SID315452395 | -0.48
AAAS | SID315452395 | -0.27
AAAS | SID315452395 | 0.24
AAAS | SID315452395 | -0.39
ANGPTL1 | SID315453015 | 1.07
ANGPTL1 | SID315453015 | 0.95
ANGPTL1 | SID315453015 | 1.34
ANGPTL1 | SID315453015 | 1.63
TULP3 | SID315452015 | 0.7
TULP3 | SID315452015 | 0.39
TULP3 | SID315452015 | 0.83
TULP3 | SID315452015 | -0.07
PDE4B | SID315450475 | 1.55
PDE4B | SID315450475 | 0.97
PDE4B | SID315450475 | 1.13
PDE4B | SID315450475 | 2.03
SEMA5B | SID315457002 | -0.8
SEMA5B | SID315457002 | -0.51
SEMA5B | SID315457002 | -0.74
SEMA5B | SID315457002 | 0.31
REG1A | SID315451092 | 0.58
REG1A | SID315451092 | 0.2
REG1A | SID315451092 | -0.2
REG1A | SID315451092 | -0.06
SPPL3 | SID315461535 | -1.11
SPPL3 | SID315461535 | -0.19
SPPL3 | SID315461535 | -0.77
SPPL3 | SID315461535 | -0.46
CBLL2 | SID315462664 | -1.36
CBLL2 | SID315462664 | -0.22
CBLL2 | SID315462664 | -1.23
CBLL2 | SID315462664 | -1.92 (active)

Copied from the entries so far for reference:
gene symbol | PubChem SID | TNF reporter robust z-score
C12orf71 | SID315465201 | -1.36
C12orf71 | SID315465201 | -0.35
C12orf71 | SID315465201 | -0.72
TEK | SID315451821 | -0.71
